According to PMC7948947:
Results are given in words; binding and its absence hold for the method and conditions named. In cells and extracts the contact can be indirect. Binding calls can cover weak binding; strength is not graded here.

The chains behind the UniProt entries cited, without tags or fusion partners. Where a name states a change or a piece, a line headed by the entry shows the natural chain unless it says otherwise.
UniProt P39688: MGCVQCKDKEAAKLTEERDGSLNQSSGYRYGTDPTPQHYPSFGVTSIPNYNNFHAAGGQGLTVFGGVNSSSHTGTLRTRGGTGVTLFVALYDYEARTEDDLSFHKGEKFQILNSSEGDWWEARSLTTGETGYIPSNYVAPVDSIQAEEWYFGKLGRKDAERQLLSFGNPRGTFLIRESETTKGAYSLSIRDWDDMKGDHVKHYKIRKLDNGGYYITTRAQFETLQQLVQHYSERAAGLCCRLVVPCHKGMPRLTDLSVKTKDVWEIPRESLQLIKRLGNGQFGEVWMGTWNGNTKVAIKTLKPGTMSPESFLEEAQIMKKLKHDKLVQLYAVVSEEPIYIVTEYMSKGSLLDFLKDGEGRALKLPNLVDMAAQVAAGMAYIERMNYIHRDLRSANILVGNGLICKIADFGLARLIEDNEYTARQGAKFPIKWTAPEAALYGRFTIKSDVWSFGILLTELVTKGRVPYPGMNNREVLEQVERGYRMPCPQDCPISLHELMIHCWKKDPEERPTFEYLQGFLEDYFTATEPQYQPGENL
UniProt P06241: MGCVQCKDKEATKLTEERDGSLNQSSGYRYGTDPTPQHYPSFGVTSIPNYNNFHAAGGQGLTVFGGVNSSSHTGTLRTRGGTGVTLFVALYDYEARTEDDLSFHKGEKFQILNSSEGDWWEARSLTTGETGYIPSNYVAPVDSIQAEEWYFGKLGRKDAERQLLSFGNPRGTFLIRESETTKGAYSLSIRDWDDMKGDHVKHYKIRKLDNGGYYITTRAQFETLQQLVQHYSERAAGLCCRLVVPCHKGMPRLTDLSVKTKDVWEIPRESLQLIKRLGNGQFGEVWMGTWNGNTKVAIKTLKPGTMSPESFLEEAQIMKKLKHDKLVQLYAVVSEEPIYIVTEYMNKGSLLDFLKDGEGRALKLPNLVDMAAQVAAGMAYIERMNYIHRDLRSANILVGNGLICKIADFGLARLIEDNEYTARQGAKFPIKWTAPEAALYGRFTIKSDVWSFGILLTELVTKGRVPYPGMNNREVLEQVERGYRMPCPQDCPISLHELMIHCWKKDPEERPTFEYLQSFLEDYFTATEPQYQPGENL
UniProt P63330: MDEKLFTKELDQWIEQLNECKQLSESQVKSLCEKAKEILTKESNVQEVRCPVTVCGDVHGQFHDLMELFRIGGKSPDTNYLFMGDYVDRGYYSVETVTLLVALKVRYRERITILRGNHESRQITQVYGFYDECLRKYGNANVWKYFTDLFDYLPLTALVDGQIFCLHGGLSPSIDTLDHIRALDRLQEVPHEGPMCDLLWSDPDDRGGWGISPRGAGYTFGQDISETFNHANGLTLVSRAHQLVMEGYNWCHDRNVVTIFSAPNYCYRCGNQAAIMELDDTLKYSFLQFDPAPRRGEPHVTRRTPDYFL

Tests used:
[1] = target: Fyn (endogenous) (mouse (endogenous in mouse cortex and N2a cells)) (UniProt P39688); test: co-IP; Fyn immunoprecipitates from total mouse cortical homogenates (~500 μg protein, precleared, antibody overnight at 4 °C, Protein A/G magnetic beads, washed in buffer with 1% NP-40 + 0.5% deoxycholate); Western blot for PP2Ac
[2] = target: GFP-tagged human Fyn (human) (UniProt P06241); test: co-IP; anti-GFP–coupled magnetic beads, NP-40 detergent-insoluble fraction of GFP–Fyn–expressing N2a cells (EV control), overnight at 4 °C; Western blot for Fyn and PP2Ac

- binding [1]: binds
- binding [2]: binds
Substance: PP2A catalytic "C" subunit (PP2Ac), endogenous (from UniProt P63330)
